# Experimental data as given in PubChem BioAssay AID504467 (National Center for Advancing Translational Sciences (NCATS), 2011).
# Among all 330,000 compounds or so, about 7,700 (2.3%) were called active. This list was built around the results that the source calls inconclusive (neither active nor inactive); the mix of calls is not that of the screen. Calls follow the shape of the dose curve; as a rule, active = well fitted inhibition curve with a large enough effect; inconclusive = small, poorly fitted or top-dose-only effect, or effect the other way; inactive = flat fitted curve, though single readings scatter. A potency beside an inconclusive call is a rough fit, not a confirmed value.
# Experiment: qHTS screen for small molecules that inhibit ELG1-dependent DNA repair in human embryonic kidney (HEK293T) cells expressing luciferase-tagged ELG1; also: nearly all actives have a fitted effect of over 55% in size
# Conditions: HEK293T ELG1-luciferase reporter, luminescence, 16 h, DNA damage induced by 5-fluorouridine; activity change, negative = inhibition: at 46.1 µM (top of the series)
# Method in brief: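 Quantitative HTS, concentration-response format. 2,000 cells/well co-treated with 5-fluorouridine and compound, 16 hr in 5% CO2 at 37 °C; ONE-Glo luminescence read after 30 min.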
# % is scaled to controls: 0 for no effect and ±100 for the full control effect; potency is read from the fitted curve at half-maximal effect.
Structure (SMILES),Potency,"activity change, negative = inhibition"
CCC(=O)Nc1ccc(NC(=O)c2cc3ccccc3o2)c(OC)c1,"inconclusive: 10.3 µM [activator, partial curve]",
O=C(N/N=C/c1cc(Br)cc([N+](=O)[O-])c1O)c1ccc(NC(=O)c2ccc(F)cc2)cc1,active: 13 µM,
CC(C)(C)NC(=O)C[C@H]1C[C@H](C(=O)N2CCCCC2)[C@@]2(C)c3[nH]c4ccc(Cl)cc4c3CCN2C1=O,"inconclusive: 16.4 µM [inhibitor, single point]",
Cc1ccc(NC(=O)c2ccc(Cl)nc2)cc1,"inconclusive: 20.6 µM [activator, partial curve]",
COc1ccc(-c2nnc3sc(CCN4C(=O)c5ccccc5C4=O)nn23)cc1,inactive,
CCCc1cc(=O)[nH]c(SCC(=O)N2c3ccccc3CC2C)n1 (stereo not drawn),"inconclusive: 29.1 µM [inhibitor, single point]",
Cc1ccc(C(CNC(=O)c2ccc(Br)o2)N2CCN(C)CC2)cc1 (stereo not drawn),inactive,
Cc1cc(O)c(/C=N/Nc2ccc(F)cc2)c(=O)o1,"inconclusive: 4.61 µM [inhibitor, full curve, poor fit]",
CCOc1ccc(S(=O)(=O)N2CCCCC2)c2ccccc12,inactive,
CC(=O)Nc1ccc(/C=C(\C#N)C(=O)NC2CCCCC2)cc1,,inconclusive: 4.99% [activator]
CN(Cc1ccccc1)C(=O)C(C(=O)c1ccc(F)cc1)n1cc(Cl)ccc1=O (stereo not drawn),"inconclusive: 25.9 µM [activator, partial curve]",
O=C(COC(=O)CNC(=O)c1ccc(Cl)cc1Cl)NCc1ccco1,"inconclusive: 25.9 µM [activator, single point]",
CC(C)NC(=S)NN=C1CCCCCCCCCCC1,"inconclusive: 18.3 µM [inhibitor, single point]",
COc1ccccc1N1CCN(Cc2nc(N)nc(Nc3ccc(C)cc3)n2)CC1,"inconclusive: 25.9 µM [inhibitor, single point]",
Cc1cc(NC(=O)CS(=O)(=O)c2ccc(F)cc2)no1,"inconclusive: 8.2 µM [activator, partial curve, poor fit]",
O=C(CSc1nc(-c2ccco2)cc(C(F)(F)F)n1)NCCN1CCOCC1,"inconclusive: 23.1 µM [activator, partial curve, poor fit]",
ONC(=Nc1cccc(C(F)(F)F)c1)c1cccnc1,"inconclusive: 29.1 µM [inhibitor, single point]",
CCCCOC(=O)Nc1nc2ccc(OC)cc2s1,"inconclusive: 8.91 µM [activator, partial curve]",
CCOC(=O)CC1=NN(c2ccccc2)C(=O)/C1=C\c1ccc(N(C)C)cc1,"inconclusive: 18.4 µM [activator, single point]",
Cc1nc(-c2ccccc2)nc2[nH]c(=O)n(-c3ccccc3)c(=O)c12,"inconclusive: 25.9 µM [activator, single point]",
CNc1nc(Cl)c(SC)c(NCc2cccc(OC)c2)n1,inactive,
Cc1ccc(C(=O)NCCc2n[nH]c(=S)n2C)cc1,"inconclusive: 23.1 µM [activator, single point]",
O=C(O)c1ccc(Nc2nc(-c3ccccc3)cs2)cc1,"inconclusive: 1.16 µM [activator, full curve]",

# Quoted at random: 5 compounds from above, in no set order.
Structure (SMILES),Potency,"activity change, negative = inhibition"
O=C(N/N=C/c1cc(Br)cc([N+](=O)[O-])c1O)c1ccc(NC(=O)c2ccc(F)cc2)cc1,active: 13 µM,
COc1ccc(-c2nnc3sc(CCN4C(=O)c5ccccc5C4=O)nn23)cc1,inactive,
COc1ccccc1N1CCN(Cc2nc(N)nc(Nc3ccc(C)cc3)n2)CC1,"inconclusive: 25.9 µM [inhibitor, single point]",
O=C(COC(=O)CNC(=O)c1ccc(Cl)cc1Cl)NCc1ccco1,"inconclusive: 25.9 µM [activator, single point]",
CCCc1cc(=O)[nH]c(SCC(=O)N2c3ccccc3CC2C)n1 (stereo not drawn),"inconclusive: 29.1 µM [inhibitor, single point]",

# Additional results

Structure (SMILES),Potency,"activity change, negative = inhibition"
CCOC(=O)c1c(NC(=O)COC(=O)c2cc(OC)c(OC)cc2[N+](=O)[O-])sc(C)c1CC,"inconclusive: 14.6 µM [inhibitor, single point]",
O=C(CNC(=O)c1ccc2ccccc2c1)Nc1ncccc1O,"inconclusive: 23.1 µM [activator, partial curve]",
COc1cc([N+](=O)[O-])ccc1NC(=O)C[n+]1ccccc1,inactive,
O=[N+]([O-])c1ccc(Cl)c(-c2ccc(/C=N/n3cnnc3)o2)c1,inactive,
O=C(COc1ccc(Cl)cc1)Nc1ccc2c(c1)OCO2,"inconclusive: 18.3 µM [activator, single point]",
O=C(NCCN1CCCCC1)c1c(O)c2ccccc2[nH]c1=O,"inconclusive: 25.9 µM [activator, partial curve, poor fit]",
CCC(=O)N1CCC2(CC1)Oc1ccc(Cl)cc1C(=O)C21CC(c2ccccc2)=NO1 (stereo not drawn),inactive,
O=C(N[C@@H](Cc1ccccc1)C(=O)N1CCN(S(=O)(=O)c2ccccc2F)CC1)c1ccco1,inactive,
CCN(CC)CCNc1cc(C)nc2c1C(=O)C(=O)C=C2N1CCCCC1,inactive,
COc1cc(CN2CCSCC2)c([N+](=O)[O-])cc1OC,inactive,
CCOC(=O)c1[nH]c2ccc(OCC)cc2c1NC(=O)CN1CCC2(CC1)OCCO2,active: 8.2 µM,
Cc1nc(N/N=C/c2ccccn2)sc1C,"inconclusive: 0.082 µM [activator, full curve]",
CC(=O)c1cnn(-c2ccccc2)c1C,inactive,
Cc1ccc(-c2nc(NC(=O)CSc3ccc4ccccc4n3)ns2)cc1,"inconclusive: 20.6 µM [activator, single point]",
COc1ccc(CN(C)C(=O)c2cc(-c3ccccc3)nc3ccc(C)cc23)c(OC)c1OC,"inconclusive: 29.1 µM [inhibitor, single point]",
COCCNC(=S)N/N=C(\C)c1ccc(Cl)s1,inactive,
Cc1cc(C(=O)CSc2nc3ccccc3[nH]2)c(C)n1Cc1ccco1,"inconclusive: 0.651 µM [activator, full curve]",
CCCCN1C(=O)C2C3C=CC(C2C1=O)C1C2C(=O)N(CCCC)C(=O)C2C31 (stereo not drawn),"inconclusive: 23.1 µM [inhibitor, single point]",
Nc1c(C(=O)NC23CC4CC(CC(C4)C2)C3)sc2nc3c(c(C(F)(F)F)c12)CCC3,"inconclusive: 18.4 µM [activator, partial curve, poor fit]",
Cc1csc(Nc2cccc3ccccc23)n1,"inconclusive: 11.6 µM [activator, partial curve, poor fit]",
CC(=O)Nc1cc(NC(C)=O)cc(C(=O)OCC(=O)c2ccc3c(c2)OCO3)c1,"inconclusive: 11.2 µM [activator, partial curve, poor fit]",
COC(=O)c1cc(NC(=O)/C=C/c2ccccc2)ccc1O,"inconclusive: 6.51 µM [activator, full curve]",
CCC1CCCCN1C(=O)CSc1nnc(-c2c[nH]c3ccccc23)o1 (stereo not drawn),"inconclusive: 29.1 µM [inhibitor, single point]",

Structure (SMILES),Potency,"activity change, negative = inhibition"
COc1ccccc1C1CC(=O)Nc2cc(C)c(C)cc21 (stereo not drawn),"inconclusive: 1.26 µM [activator, single point]",
COCCCn1c(SCC(=O)Nc2oc(C)c3c(C)n[nH]c(=O)c23)nc2sc3c(c2c1=O)CCC3,"inconclusive: 17.8 µM [inhibitor, partial curve]",
Cc1ccc(C)c2nc(Cl)c(C3NC(=O)c4ccccc4N3)cc12 (stereo not drawn),"inconclusive: 16.4 µM [inhibitor, single point]",
COc1cccc(C(=O)O/N=C(\N)c2ccc([N+](=O)[O-])cc2)c1,"inconclusive: 8.2 µM [activator, partial curve]",
CCc1cc(C(=O)N2CCCC(C(=O)c3cccc(OC(C)C)c3)C2)n(C)n1 (stereo not drawn),"inconclusive: 18.3 µM [inhibitor, partial curve, poor fit]",
CC(C)C[C@H](N)c1nnc(S(=O)(=O)Cc2ccc(F)cc2)o1,"inconclusive: 29.1 µM [inhibitor, single point]",
Cc1cc(Br)c(OCc2ccc(C(=O)N/N=C3\CC4CC=CC34)cc2)c(Br)c1 (stereo not drawn),inactive,
Cc1cnc(NC(=O)CSc2nnc(Cc3ccccc3)n2C)s1,inactive,
COc1ccc(NC(=O)c2cc(-c3ccccn3)nc3ccccc23)cc1S(=O)(=O)N(C)C,"inconclusive: 7.3 µM [inhibitor, partial curve]",
COc1cccc(N(C(=O)c2snc(C(N)=O)c2N)C(C(=O)NCC2CCCO2)c2ccc(F)cc2)c1 (stereo not drawn),inactive,
N#Cc1c(N2CCOCC2)nc(-c2ccco2)c2c1CCCC2,"inconclusive: 29.1 µM [inhibitor, single point]",
CSc1nnnn1-c1ccc(Cl)cc1,"inconclusive: 25.9 µM [activator, partial curve, poor fit]",
O=C(CCCn1nnc(-c2cccnc2)n1)c1ccc(F)cc1,"inconclusive: 35.5 µM [inhibitor, single point]",
Cc1cccc(NC(=O)CN2CCN(C(=O)C3CCC3)CC2)c1C,inactive,
CC(=O)Nc1ccc(NC(=O)/C=C/c2ccc(Cl)cc2)cc1,"inconclusive: 16.4 µM [activator, partial curve, poor fit]",
COc1cc(/C=C2/C(=O)NN(c3ccc(Cl)c(Cl)c3)C2=O)cc([N+](=O)[O-])c1O,inactive,
Cc1nn(-c2ccccc2)c(N2CCCC2)c1/C=N/NC(=O)c1cc(-c2cccnc2)nc2ccccc12,active: 4.61 µM,
CCC1NC(=S)N(C2CCCCC2)C1=O (stereo not drawn),inactive,
O=C(NCc1ccc(F)cc1)C(=O)NCC1CCCN1S(=O)(=O)c1ccccc1 (stereo not drawn),"inconclusive: 25.9 µM [inhibitor, single point]",
O=C1CSC(c2nn(-c3ccccc3)cc2-c2cc3ccccc3oc2=O)N1Cc1ccco1 (stereo not drawn),"inconclusive: 18.4 µM [inhibitor, partial curve]",
CCc1nnc(NC(=O)CSc2nc(SC)ns2)s1,"inconclusive: 23.1 µM [activator, partial curve]",
Cc1cc(NC(=O)COC(=O)CNS(=O)(=O)c2c(F)cc(F)cc2Br)no1,"inconclusive: 23.1 µM [activator, partial curve, poor fit]",
